Substitutions are numbered along the chain they refer to. Results are given in words; binding and its absence hold for the method and conditions named. Some binding calls cover weakened binding; strength is not graded here.
What was measured:
[1] = biological target: 人源PCSK9 (前蛋白转化酶枯草杆菌蛋白酶Kexin 9型) (human) (UniProt Q8NBP7); assay: SPR
[2] = biological target: 人源PCSK9 (前蛋白转化酶枯草杆菌蛋白酶Kexin 9型) (human) (UniProt Q8NBP7); assay: binding and blocking ELISA; the mouse parent is the reference of the comparison

The chains behind the UniProt entries cited, without tags or fusion partners. Residues count along the entry.
UniProt Q8NBP7, residues 31-692: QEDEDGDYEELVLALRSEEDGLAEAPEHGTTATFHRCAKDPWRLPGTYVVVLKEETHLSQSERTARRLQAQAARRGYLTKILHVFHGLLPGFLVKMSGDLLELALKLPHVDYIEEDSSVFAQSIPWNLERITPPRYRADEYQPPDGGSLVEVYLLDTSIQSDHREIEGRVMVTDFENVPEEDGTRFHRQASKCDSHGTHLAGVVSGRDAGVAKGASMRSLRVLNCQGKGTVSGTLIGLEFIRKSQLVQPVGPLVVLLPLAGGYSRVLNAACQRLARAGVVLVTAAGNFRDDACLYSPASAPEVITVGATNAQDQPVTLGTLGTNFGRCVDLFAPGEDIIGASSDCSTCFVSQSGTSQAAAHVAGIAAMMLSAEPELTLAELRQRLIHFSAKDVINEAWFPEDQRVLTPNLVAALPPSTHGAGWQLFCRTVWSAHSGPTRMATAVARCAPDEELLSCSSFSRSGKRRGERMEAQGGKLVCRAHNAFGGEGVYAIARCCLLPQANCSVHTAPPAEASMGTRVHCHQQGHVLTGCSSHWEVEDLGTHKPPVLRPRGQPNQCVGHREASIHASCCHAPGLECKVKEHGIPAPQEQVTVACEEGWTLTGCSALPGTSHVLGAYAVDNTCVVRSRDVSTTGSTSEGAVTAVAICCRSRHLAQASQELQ

B1: 2.12.12.4-v2-z4-uIgG4k (antibody, V domains shown)
VH: QVQLVQSGAEVKKPGSSVKVSCEASGYTFTNYVMHWVRQAPGQGLEWMGYINPYNDYIKYNEKFKGKATITADKSTSTAYMELSSLRSEDTAVYYCGRQRYYGYRPYYAMDYWGQGTLVTVSS
VL: DIVLTQSPASLAVSPGQRATITCRASESVEGYGNVFMHWYQQKPGQPPKLLIYLASNLESGVPARFSGSGSGTDFTLTINPVEADDTANYYCQQNNKDPWTFGGGTKVEIK
binding [1]: binds

B2: 2.12.12.4 (小鼠单克隆抗体) (antibody, V domains shown)
VH: EVQLQQSGPELVKPGASVKMSCEASGYTFTNYVMHWVKQKPGQGLEWIGYINPYNDYIKYNEKFKGKATLTSDKSSSTTYLEVSSLTSEDSAVYYCGRQRYYGYRPYYAMDYWGQGTSVTVSS
VL: B1 VL with D1N, P15L, T22S, E30D, A64D, G72R, N80D, T87A, N89T, V108L
binding [2]: binds

Reference: patent CN107840892A
